Experimental data taken from doi:10.1101/2022.04.06.487319 (bioRxiv, 2022).
These are yes or no findings as the source states them, for the method shown. Binding seen in cells or lysates may run through a third protein. Some results given as binding are weak or reduced against the parent protein; the word gives no strength. Sequences can lack the tags named with a protein. Blank lines part the entries; values can stand above or below the binder they belong to.

Legend:
Assay in all cases: co-IP
[1] = target: T1, 3HA-Red1^346-827 (Saccharomyces cerevisiae) (UniProt P14291)
T1 sequence: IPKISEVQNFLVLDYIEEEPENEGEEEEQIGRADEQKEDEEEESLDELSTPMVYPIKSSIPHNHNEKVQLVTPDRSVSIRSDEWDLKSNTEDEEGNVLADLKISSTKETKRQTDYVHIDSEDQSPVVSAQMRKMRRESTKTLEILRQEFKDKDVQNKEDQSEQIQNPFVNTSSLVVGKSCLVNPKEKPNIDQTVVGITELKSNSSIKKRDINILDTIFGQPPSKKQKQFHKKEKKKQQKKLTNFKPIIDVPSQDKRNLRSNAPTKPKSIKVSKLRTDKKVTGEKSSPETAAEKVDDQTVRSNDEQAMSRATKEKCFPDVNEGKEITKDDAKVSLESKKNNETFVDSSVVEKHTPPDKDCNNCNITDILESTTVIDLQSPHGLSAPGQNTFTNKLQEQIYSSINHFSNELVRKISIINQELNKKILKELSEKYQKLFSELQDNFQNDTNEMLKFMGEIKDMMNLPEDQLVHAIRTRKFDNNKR

[2] = target: T2, 3HA-Red1^1-366 (Saccharomyces cerevisiae) (UniProt P14291)
T2 sequence: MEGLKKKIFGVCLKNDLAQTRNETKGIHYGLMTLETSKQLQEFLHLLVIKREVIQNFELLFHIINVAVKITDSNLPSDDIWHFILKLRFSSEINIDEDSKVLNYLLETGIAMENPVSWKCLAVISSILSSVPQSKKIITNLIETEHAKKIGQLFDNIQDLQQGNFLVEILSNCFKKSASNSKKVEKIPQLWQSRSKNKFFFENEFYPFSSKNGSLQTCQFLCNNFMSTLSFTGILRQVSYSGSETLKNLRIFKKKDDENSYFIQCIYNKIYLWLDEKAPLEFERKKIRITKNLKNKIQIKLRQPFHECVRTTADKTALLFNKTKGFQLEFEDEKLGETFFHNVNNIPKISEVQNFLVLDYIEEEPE

[3] = target: T3, 3HA-Red1^367-827 (Saccharomyces cerevisiae) (UniProt P14291)
T3 sequence: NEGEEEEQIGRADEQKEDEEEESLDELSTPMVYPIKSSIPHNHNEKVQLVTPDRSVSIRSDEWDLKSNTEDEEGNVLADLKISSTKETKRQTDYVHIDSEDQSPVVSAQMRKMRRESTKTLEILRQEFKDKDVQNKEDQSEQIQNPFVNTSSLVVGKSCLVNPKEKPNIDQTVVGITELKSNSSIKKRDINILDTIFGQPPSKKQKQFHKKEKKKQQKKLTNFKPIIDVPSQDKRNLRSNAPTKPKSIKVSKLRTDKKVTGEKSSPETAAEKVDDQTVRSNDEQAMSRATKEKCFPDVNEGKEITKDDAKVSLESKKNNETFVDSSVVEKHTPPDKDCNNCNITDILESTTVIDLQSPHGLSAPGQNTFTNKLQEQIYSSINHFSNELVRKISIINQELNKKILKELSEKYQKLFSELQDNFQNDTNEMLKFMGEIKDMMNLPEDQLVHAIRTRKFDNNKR

[4] = target: T4, 3HA-Red1^1-730 (Saccharomyces cerevisiae) (UniProt P14291)
T4 sequence: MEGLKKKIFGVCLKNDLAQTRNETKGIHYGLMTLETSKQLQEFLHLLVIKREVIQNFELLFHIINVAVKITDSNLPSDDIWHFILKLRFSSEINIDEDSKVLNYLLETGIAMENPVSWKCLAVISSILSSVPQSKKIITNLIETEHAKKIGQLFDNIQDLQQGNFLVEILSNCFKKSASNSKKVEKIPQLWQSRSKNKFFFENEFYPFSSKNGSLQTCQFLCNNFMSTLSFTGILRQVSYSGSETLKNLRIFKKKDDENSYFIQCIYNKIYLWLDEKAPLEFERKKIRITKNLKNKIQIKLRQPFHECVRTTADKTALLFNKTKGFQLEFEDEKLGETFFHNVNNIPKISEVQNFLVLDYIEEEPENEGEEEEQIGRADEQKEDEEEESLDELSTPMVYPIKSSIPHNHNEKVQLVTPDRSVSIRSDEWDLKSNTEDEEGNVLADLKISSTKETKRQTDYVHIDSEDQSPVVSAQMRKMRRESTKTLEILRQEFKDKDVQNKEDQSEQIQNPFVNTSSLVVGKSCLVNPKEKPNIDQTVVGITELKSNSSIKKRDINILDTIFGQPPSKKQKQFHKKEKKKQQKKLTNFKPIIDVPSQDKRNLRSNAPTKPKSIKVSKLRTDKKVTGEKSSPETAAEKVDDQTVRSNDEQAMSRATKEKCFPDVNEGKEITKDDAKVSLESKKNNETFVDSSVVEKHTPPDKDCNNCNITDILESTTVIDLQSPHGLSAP

binding [1]: binds
binding [2]: binds
binding [3]: binds
binding [4]: binds
B1: GFP-Mek1 (pGAL1::GFP-MEK1) (enzyme, UniProt P24719 1-497)
chain: MRPLYSCNLATKDDIEMAGGVAPAHLEVNVGGYNTEQTIPIVKHQLVKVGRNDKECQLVLTNPSISSVHCVFWCVFFDEDSIPMFYVKDCSLNGTYLNGLLLKRDKTYLLKHCDVIELSQGSEENDIKKTRLVFMINDDLQSSLDPKLLDQMGFLREVDQWEITNRIVGNGTFGHVLITHNSKERDEDVCYHPENYAVKIIKLKPNKFDKEARILLRLDHPNIIKVYHTFCDRNNHLYIFQDLIPGGDLFSYLAKGDCLTSMSETESLLIVFQILQALNYLHDQDIVHRDLKLDNILLCTPEPCTRIVLADFGIAKDLNSNKERMHTVVGTPEYCAPEVGFRANRKAYQSFSRAATLEQRGYDSKCDLWSLGVITHIMLTGISPFYGDGSERSIIQNAKIGKLNFKLKQWDIVSDNAKSFVKDLLQTDVVKRLNSKQGLKHIWIAKHLSQLERLYYKKILCNNEGPKLESINSDWKRKLPKSVIISQAIPKKKKVLE

binding [1]: binds
binding [2]: binds
binding [3]: no binding
binding [4]: binds
B2: Hop1 (pGAL1::HOP1), untagged (protein, UniProt P20050 1-605)
chain: MSNKQLVKPKTETKTEITTEQSQKLLQTMLTMSFGCLAFLRGLFPDDIFVDQRFVPEKVEKNYNKQNTSQNNSIKIKTLIRGKSAQADLLLDWLEKGVFKSIRLKCLKALSLGIFLEDPTDLLENYIFSFDYDEENNVNINVNLSGNKKGSKNADPENETISLLDSRRMVQQLMRRFIIITQSLEPLPQKKFLTMRLMFNDNVDEDYQPELFKDATFDKRATLKVPTNLDNDAIDVGTLNTKHHKVALSVLSAATSSMEKAGNTNFIRVDPFDLILQQQEENKLEESVPTKPQNFVTSQTTNVLGNLLNSSQASIQPTQFVSNNPVTGICSCECGLEVPKAATVLKTCKSCRKTLHGICYGNFLHSSIEKCFTCIFGPSLDTKWSKFQDLMMIRKVFRFLVRKKKGFPASITELIDSFINVEDQNNEVKERVAFALFVFFLDETLCLDNGGKPSQTIRYVTSSVLVDVKGIVIPNTRKQLNVNHEYKWHFTTSSPKAESFYQEVLPNSRKQVESWLQDITNLRKVYSEALSPSSTLQELDLNSSLPTQDPIISGQKRRRYDLDEYLEEDKSSVVNDTIKAKDFDESVPAKIRKISVSKKTLKSNW
